In the supplement of paper PMC12889115:
Some of the results follow. Values are raw readings; no control value is given beside them.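 In the initial screen, polymyxin B was used at a concentration that permeabilizes Salmonella's outer membrane but not its inner membrane. Maximum growth was set by DMSO wells with or without polymyxin B. Since plates varied, data were ranked per plate, and compounds giving the lowest OD600 advanced as hits.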

System: Salmonella enterica serovar Typhimurium SL1344
Test: bacterial growth OD600 after 18 h with compound and polymyxin B; higher = more bacterial growth (less inhibition)
Conditions: 50 µM, Mueller-Hinton broth

SMILES	bacterial growth OD600 (polymyxin B 1 µg/mL)	bacterial growth OD600 (polymyxin B 0.75 µg/mL)
CCCN1CCC(NC(=O)c2ccc(OC3CCN(Cc4ccccn4)CC3)cc2)CC1	1.03	–
CCN(Cc1cnc(C)s1)CC1CCCN(CCc2cccc(OC)c2)C1 (stereo not given)	0.85	–
COc1cccc(-c2cnc(-c3ccncc3)nc2C2CCN(C(=O)/C=C/c3cccc(F)c3)CC2)c1	–	0.074
OCCC1CN(Cc2cnc(-c3ccccc3)s2)CCN1Cc1ccccc1F (stereo not given)	0.779	–
COc1ccc(Cl)cc1NC(=O)CCC1CCCN(C(=O)Cc2nonc2C)C1 (stereo not given)	1.07	–
O=C(c1ccc2c(c1)OCO2)C1CCCN(C(=O)Cn2c(=O)oc3ccccc32)C1 (stereo not given)	0.892	–
COc1cc(C(=O)NC(C)Cc2ccccn2)ccc1OC1CCN(C(C)=O)CC1 (stereo not given)	0.873	–
CCn1cc(CN2CCC(c3ccc(OC)c(C)c3)Sc3cc(OC)ccc32)c(C)n1 (stereo not given)	–	-0.001
COc1ccccc1NC(=O)Nc1ccnn1C1CCN(C(=O)c2ccoc2)CC1	–	0.832
CCC1CN(CCC(=O)NCC(c2cccnc2)N2CCOCC2)Cc2cc(OC)ccc2O1 (stereo not given)	–	0.803
COCC(=O)N1CCC(Oc2ccc(C(=O)NCCc3nc(C)cc(C)n3)cc2)CC1	0.965	–
Cn1ccnc1CN1CCN(Cc2nc(-c3ccccc3)no2)CC1	–	0.934
COc1ccc(OC)c(C(=O)NCc2cccnc2-n2ccnc2)c1	–	0.865
O=C1N(C2CCCC2)C[C@@H]2C[C@@H](c3cnn(-c4ccccc4)c3)N3CCC[C@@]123	–	0.869
COCCN1C(=O)CC(CC(=O)N2CCCOc3c(cccc3OC)C2)(c2ccccc2OC)C1=O (stereo not given)	–	1.03
CCOC(=O)C1(CCCc2ccccc2)CCN(C(=O)C2CC(C(C)C)=NO2)CC1 (stereo not given)	0.553	–
COCC(C)NC(=O)Cc1c2c(n(Cc3ccc(F)cc3)c1C)CCCC2=O (stereo not given)	–	0.93
NC(=O)[C@@H]1CCCN1C(=O)c1ccc2nc(C3CCCCC3)oc2c1	–	0.792
CSc1ncc(CN2CCC(CCC(=O)N3CCN(c4ccccc4)CC3)CC2)cn1	–	0.788
C=CCCC(=O)NC1CCCN(CC2CCCCC2)C1 (stereo not given)	1.13	–
CCC(COC)NC(=O)CN1Cc2cc(OC)ccc2OC(CC)C1 (stereo not given)	–	0.957
CC(C)Cc1cc(CN2CCCC(CO)(Cc3cccc(Cl)c3)C2)n[nH]1 (stereo not given)	0.655	–
O=C(Cc1ccsc1)NCC1Cc2cccc(-c3ncccn3)c2O1 (stereo not given)	–	0.762
CCn1nc(C)c(CNC2CCN(c3ccc(CC(=O)N4CCC[C@H]4C(=O)OC)cc3)CC2)c1C	–	0.863
Cc1cc(CNCc2nc3ccccc3[nH]2)c2[nH]c(C)c(C)c2c1	1.03	–
CCOC(=O)c1n[nH]cc1CN1CCCC(Cc2ccc(F)cc2F)(C(=O)OCC)C1 (stereo not given)	0.894	–
O=C(CN1CCOC1=O)N1CCCC(CCc2ccc(F)c(F)c2)C1 (stereo not given)	–	0.62
CC(C)n1cc(C(=O)NCC2CCCCC2)c(=O)c(C(=O)N2CCN(C(=O)c3ccco3)CC2)c1	–	0.865
O=C1CCC(C(=O)N2CCSCC2)CN1CCCc1ccccc1 (stereo not given)	0.943	–
COc1cc(OC)c2nc(-c3cc4c(c(OC)c3)OCCN(C(=O)c3cccc(N5CCNC5=O)c3)C4)cc(C)c2c1	–	0.855

A different layout for 2 compounds above.
CC(C)Cc1cc(CN2CCCC(CO)(Cc3cccc(Cl)c3)C2)n[nH]1 (stereo not given)
  bacterial growth OD600 (polymyxin B 1 µg/mL): 0.655
O=C(Cc1ccsc1)NCC1Cc2cccc(-c3ncccn3)c2O1 (stereo not given)
  bacterial growth OD600 (polymyxin B 0.75 µg/mL): 0.762
